According to article PMC8941131:
Where a chain is given by its changes, count along the chain named. These are yes or no findings as the source states them, for the method shown. Binding seen in cells or lysates may run through a third protein. Some entries that bind do so weakly or less than the wild type. For some of these results: Sequences can lack the tags named with a protein.

Chains of the proteins cited; added tags and fusions are not shown.
UniProt P31749: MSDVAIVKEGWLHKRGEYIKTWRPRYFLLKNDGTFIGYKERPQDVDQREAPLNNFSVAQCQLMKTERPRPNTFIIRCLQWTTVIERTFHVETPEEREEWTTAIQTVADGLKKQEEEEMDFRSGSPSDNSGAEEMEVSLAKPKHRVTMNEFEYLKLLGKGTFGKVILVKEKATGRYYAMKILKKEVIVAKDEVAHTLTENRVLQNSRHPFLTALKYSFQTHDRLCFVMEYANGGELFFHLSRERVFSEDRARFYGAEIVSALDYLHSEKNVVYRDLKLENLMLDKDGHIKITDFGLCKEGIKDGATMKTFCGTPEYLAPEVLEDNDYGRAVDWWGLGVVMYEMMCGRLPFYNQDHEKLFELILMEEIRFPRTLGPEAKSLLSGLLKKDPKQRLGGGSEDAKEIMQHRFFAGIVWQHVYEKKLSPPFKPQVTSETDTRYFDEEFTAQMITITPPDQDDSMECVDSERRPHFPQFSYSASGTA

Key:
Test in all cases: co-IP; immunoprecipitation (anti-Flag or anti-HA agarose, 2-4 h at 4 °C) from whole cell lysates of co-transfected 293T cells; EBC lysis buffer, four washes with NETN buffer, immunoblot; in some panels with HA-S6K1-R3A or knock-down of 14-3-3γ
[1] = target: T1, Flag-PDK1-R546P (UniProt O15530)
T1 sequence: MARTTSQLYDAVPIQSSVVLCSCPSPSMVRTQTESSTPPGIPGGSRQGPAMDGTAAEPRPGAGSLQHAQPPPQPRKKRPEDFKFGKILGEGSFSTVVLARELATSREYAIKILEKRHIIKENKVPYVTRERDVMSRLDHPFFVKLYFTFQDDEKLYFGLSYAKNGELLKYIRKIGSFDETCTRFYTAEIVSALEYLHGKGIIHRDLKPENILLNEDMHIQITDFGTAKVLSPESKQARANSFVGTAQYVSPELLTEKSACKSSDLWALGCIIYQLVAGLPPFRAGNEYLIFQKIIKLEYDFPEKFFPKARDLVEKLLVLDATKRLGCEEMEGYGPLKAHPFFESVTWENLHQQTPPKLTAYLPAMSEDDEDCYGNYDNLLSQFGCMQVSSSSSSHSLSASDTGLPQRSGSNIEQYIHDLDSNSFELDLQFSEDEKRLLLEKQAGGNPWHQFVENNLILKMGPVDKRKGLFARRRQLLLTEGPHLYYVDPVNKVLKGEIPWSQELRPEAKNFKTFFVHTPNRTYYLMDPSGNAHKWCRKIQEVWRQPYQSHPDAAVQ

[2] = target: T2, Flag-PDK1-S549A (UniProt O15530)
T2 sequence: T1 sequence with P546R, S549A

[3] = target: T3, Flag-PDK1-S549N (UniProt O15530)
T3 sequence: T1 sequence with P546R, S549N

[4] = target: T4, PDK1-P551Q (UniProt O15530)
T4 sequence: T1 sequence with P546R, P551Q

binding [1]: binds | binding [2]: binds | binding [3]: binds | binding [4]: binds
Substance: HA-AKT1 (from UniProt P31749 1-480) (enzyme)
